Source: PubChem BioAssay AID504467 (National Center for Advancing Translational Sciences (NCATS), 2011)
In all, about 330,000 compounds went through this assay and about 7,700 (2.3%) were called active. The shares of active, inactive and inconclusive entries below differ from those in the screen. The call rests on the fitted dose curve; in most records, active means well fitted inhibition curve with a large enough effect; inconclusive means small, poorly fitted or top-dose-only effect, or effect the other way; inactive means flat fitted curve, though single readings scatter. Potencies of inconclusive entries are doubtful fits and often do not repeat.

Experiment: qHTS screen for small molecules that inhibit ELG1-dependent DNA repair in human embryonic kidney (HEK293T) cells expressing luciferase-tagged ELG1; further: nearly all actives have a fitted effect of over 55% in size
Conditions: HEK293T ELG1-luciferase reporter, luminescence, 16 h, DNA damage induced by 5-fluorouridine; series mostly up to 46.1 µM
How it was run: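 Step one: seed 2,000 cells per well. Step two: pin-transfer compound or DMSO alongside 5-fluorouridine. Step three: incubate 16 hr, 37 °C, 5% CO2. Step four: add ONE-Glo, wait 30 min, read luminescence.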
Potency means the concentration at half of the fitted maximal effect.

SMILES | Potency
Cc1ccn2c(=O)nc(SCC(=O)c3ccc(Cl)cc3)nc2c1 | inconclusive: 4.61 µM [activator, single point]
COc1ccc(OC)c(NC(=S)NN2CCN(C)CC2)c1 | inconclusive: 14.6 µM [inhibitor, partial curve]
CC1(C)NC(=O)N(CCCCSc2ccc(Cl)cc2)C1=O | inconclusive: 32.6 µM [inhibitor, single point]
Cc1ccc(NS(=O)(=O)c2cc(C(=O)NCCSc3ccc(C)cc3)ccc2C)cc1 | inconclusive: 20.6 µM [inhibitor, single point]
Cc1ccc(-c2nn(C)c(=O)c3ccccc23)cc1CO | inconclusive: 20.6 µM [activator, single point]
CC(=O)C1=C(O)CCCC1=NCc1nc2ccccc2[nH]1 | inactive
Oc1ccc(N2Cc3ccccc3C2)cc1 | inactive
COC(=O)c1ccc(NC(=O)C2CCCCC2C(=O)O)cc1 (stereo unspecified) | inconclusive: 25.9 µM [activator, partial curve, poor fit]
COc1cc(C)c(CN2CCC(Cc3ccccc3)CC2)cc1C | inactive
C[C@H](CO)N1C[C@H](C)[C@@H](CN(C)S(=O)(=O)c2ccccc2)Oc2ccc(NS(=O)(=O)c3ccccc3)cc2C1=O | active: 23.1 µM
CN1CCN(C(=O)/C=C/c2ccc3c(c2)OCO3)CC1 | inconclusive: 18.4 µM [activator, partial curve, poor fit]
Cc1cc(C)n(CC(O)Cn2c3ccc(Cl)cc3c3cc(Cl)ccc32)c(=O)n1 (stereo unspecified) | inactive
CCc1nc(C)cn1S(=O)(=O)c1cc([N+](=O)[O-])ccc1Cl | inconclusive: 6.51 µM [activator, partial curve, poor fit]
CCOc1ccc(Nc2ncnc3c2cnn3C)cc1 | inconclusive: 25.9 µM [activator, single point]
CCOC(=O)C1(Cc2ccccc2)CCN(Cc2cccn2-c2cccnc2)CC1 | inconclusive: 29.1 µM [inhibitor, single point]
O=C(Nc1ccccc1)c1cc2ccccc2[nH]1 | inconclusive: 8.2 µM [activator, partial curve]
Cc1ccc(-c2cc(C(F)(F)F)nc(SCC(=O)c3cccc([N+](=O)[O-])c3)n2)cc1 | active: 18.4 µM
c1ccc(Cn2nnc3c(NCC4CCCO4)nc(C4CC4)nc32)cc1 (stereo unspecified) | inconclusive: 29.1 µM [inhibitor, single point]
Cc1nc2ccccc2c(=O)n1/N=C/c1ccc2ccccc2c1O | inconclusive: 23.1 µM [inhibitor, single point]
O=C(CNC(=O)c1cccs1)Nc1ccc(N2CCOCC2)cc1 | inconclusive: 29.1 µM [activator, single point]
CCN(C(=O)CSc1nnc(-c2ccco2)n1Cc1ccccc1)C1CCS(=O)(=O)C1 (stereo unspecified) | inconclusive: 18.3 µM [inhibitor, single point]
O=C(NCc1ccc(F)cc1)Nc1ccc(Cl)cc1 | inconclusive: 14.6 µM [activator, partial curve, poor fit]
N#CCc1ccc(C(=O)c2ccccc2)s1 | inconclusive: 14.6 µM [activator, partial curve]
COc1ccc(Br)c(C(=O)OCc2cc(=O)oc3cc(C)ccc23)c1 | inconclusive: 20.6 µM [activator, partial curve, poor fit]

Quoted at random: 5 records from the list
SMILES | Potency
O=C(Nc1ccccc1)c1cc2ccccc2[nH]1 | inconclusive: 8.2 µM [activator, partial curve]
Oc1ccc(N2Cc3ccccc3C2)cc1 | inactive
Cc1cc(C)n(CC(O)Cn2c3ccc(Cl)cc3c3cc(Cl)ccc32)c(=O)n1 (stereo unspecified) | inactive
CC(=O)C1=C(O)CCCC1=NCc1nc2ccccc2[nH]1 | inactive
CC1(C)NC(=O)N(CCCCSc2ccc(Cl)cc2)C1=O | inconclusive: 32.6 µM [inhibitor, single point]

Further results:

SMILES | Potency
NC1=NC(=Nc2cccc(S(=O)(=O)N3CCOCC3)c2)c2ccccc21 | inconclusive: 20.6 µM [activator, single point]
COc1ccc(Cn2c(N)c(S(=O)(=O)c3cccs3)c3nc4ccccc4nc32)cc1 | inactive
COc1ccc(N(CC(=O)N2CCCCC2)S(=O)(=O)c2ccccc2)c(OC)c1 | inconclusive: 29.1 µM [inhibitor, single point]
CCCCn1c(=O)[nH]c(=O)c2c1nc(-c1ccncc1)n2CCOC | inactive
C/C(=N\NC(=S)NCc1ccccc1)c1ccc(Cl)s1 | inactive
COc1ccc(N2CCN(S(=O)(=O)c3ccc4c(c3)N(C(C)=O)CCO4)CC2)cc1 | inconclusive: 29.1 µM [inhibitor, single point]
COc1ccc(S(=O)(=O)N(C)C[C@H]2Oc3ccc(NC(=O)NC4CCCCC4)cc3C(=O)N([C@H](C)CO)C[C@@H]2C)cc1 | inactive
CN(C)C(=O)CSc1ncccc1-c1nc2ccccc2[nH]1 | inactive
CC(SCc1ccccc1)C(=O)Nc1ccccc1-c1ccccc1 (stereo unspecified) | inactive
CC(C)CC(NC(=O)CCl)c1ccccc1 (stereo unspecified) | inconclusive: 25.9 µM [inhibitor, single point]
CCC(C(=O)NC1CCCC1)N(C(=O)Cn1nnc(-c2ccc(C)o2)n1)c1ccc(OC)cc1 (stereo unspecified) | inactive
COCCNC(=O)CSc1nc2cc3c(cc2c(=O)n1Cc1ccco1)OCO3 | inconclusive: 9.2 µM [inhibitor, partial curve]
CCCCn1c(N)c(N(CCOC)C(=O)c2ccc(N(C)S(=O)(=O)c3ccc(C)cc3)cc2)c(=O)[nH]c1=O | inactive
COc1cc(NC(=O)c2ccccc2)c(OC)cc1NC(=O)CN1CCOCC1 | inconclusive: 29.1 µM [inhibitor, single point]
CCS(=O)(=O)c1ccc2oc(SCC(=O)NC34CC5CC(CC(C5)C3)C4)nc2c1 | inactive
CCOc1cc(/C=C2/NC(=S)NC2=O)ccc1OCc1ccc([N+](=O)[O-])cc1 | inconclusive: 6.51 µM [inhibitor, single point]
O=C(NCC1CCCO1)c1cc2c([nH]c3ccccc32)c(-c2ccc(F)cc2)n1 (stereo unspecified) | inconclusive: 0.651 µM [inhibitor, partial curve, poor fit]
O=C(COC(=O)c1ccc(O)cc1)c1ccc2c(c1)OCCO2 | inconclusive: 10.3 µM [activator, partial curve, poor fit]
C=CCOC(=O)C1=C(C)NC(C)=C(C(=O)OCC=C)C1/C=C/c1ccccc1 | inconclusive: 1 µM [activator, full curve, poor fit]
CCOc1ccc(NC(=O)CCC(=O)c2ccc(F)cc2)cc1 | inactive
COc1ccc(CNC(=O)CNC(c2ccccc2)c2ccccc2)cc1OC | inactive
Cc1cccc(CN(CC(=O)N/N=C/c2cccs2)S(=O)(=O)c2ccc(Cl)cc2)c1 | inactive
Cc1nc(NC2CCCCC2)c2nnn(Cc3ccccc3Cl)c2n1 | inconclusive: 29.1 µM [inhibitor, single point]
Cc1cccc2c(=O)cc(C)n(CC(=O)N3CCCCC3)c12 | inactive

SMILES | Potency
CCOP(=O)(OCC)c1nc(-c2ccc(Cl)cc2Cl)oc1N1CCOCC1 | inactive
CCCCN(C(=O)Cc1ccc(S(=O)(=O)N2CCOCC2)s1)c1ccccc1 | inactive
Cc1ccc(/C(C#N)=C\c2ccc(N3CCOCC3)o2)cc1 | inconclusive: 2.59 µM [activator, partial curve]
COc1ccc(-c2cc3c(=O)n(CC(=O)N4CCCC4)ncn3n2)cc1 | inconclusive: 20.6 µM [activator, single point]
CCCCN(Cc1cccs1)S(=O)(=O)c1ccc(-c2ccc(=O)[nH]n2)s1 | inconclusive: 13 µM [activator, partial curve, poor fit]
COc1ccc(C(=O)/C=C/c2cc(OC)c(O)c(OC)c2)c(F)c1 | active: 8.2 µM
O=C(N/N=C/c1cccc2ccccc12)c1cccs1 | inconclusive: 7.3 µM [activator, partial curve]
O=S(=O)(Nc1ccc(N2CCOCC2)cc1)c1cccs1 | inconclusive: 20.6 µM [activator, partial curve, poor fit]
CC1=C(C(=O)Nc2ccc(C)cn2)C(c2cnn(C)c2)C2=C(CCCC2=O)N1 (stereo unspecified) | inconclusive: 10.3 µM [activator, partial curve]
CCCCSc1nnc(-c2ccc(C)cc2)o1 | inconclusive: 7.31 µM [activator, partial curve]
COC(=O)C1CCN(C(=O)/C=C/c2ccccc2)CC1 | inconclusive: 9.2 µM [activator, partial curve]
CCOC(=O)C1=C(C)NC2=C(C(=O)c3ccccc32)C1c1ccc([N+](=O)[O-])o1 (stereo unspecified) | inconclusive: 20.6 µM [inhibitor, partial curve]
O=C(NCCCO)c1nc2ccccc2s1 | inconclusive: 29.1 µM [activator, single point]
CSc1nc2ccccc2n1CC(=O)N1CCCCC1 | inconclusive: 32.6 µM [activator, single point]
COC(=O)c1c(NC(=O)CCS(=O)(=O)c2ccccc2)sc2c1CCN(C)C2 | inactive
COc1ccc(N(CC(=O)Nc2cccc(C)c2)S(=O)(=O)c2ccc(C)cc2)cc1OC | inactive
COCCn1c(=NC(=O)c2cc(-c3cccs3)nc3ccccc23)sc2cc(S(N)(=O)=O)ccc21 | active: 6.51 µM
CC(C)c1ccc2[nH]c3c(c2c1)CCCC3=O | inconclusive: 23.1 µM [activator, single point]
CCn1cc(C(=O)NC2CCCCCC2)c2cc(OC)c(OC)cc2c1=O | active: 13 µM
O=C(Nc1ccccc1C(=O)O)c1cccc(C(=O)Nc2ccccc2C(=O)O)c1 | inconclusive: 20.6 µM [inhibitor, single point]
CCN1CCN(CCCNC(=O)c2ccc3c(c2)NC(=O)c2ccccc2S3)CC1 | inconclusive: 25.9 µM [activator, single point]
COc1cc(S(=O)(=O)NCc2ccc(F)cc2)ccc1-n1cnnn1 | inactive
CCOc1ccc(-c2ccc(/C=C3/C(=N)N4C=CSC4=NC3=O)o2)c([N+](=O)[O-])c1 | inactive
